# Measurements reported in PubChem BioAssay AID1347131 (National Center for Advancing Translational Sciences (NCATS), 2019).
# About 2,000 (0.49%) of roughly 410,000 compounds were called active. The inconclusive results got no clear call from the source; some entries with a clear call stand among them for comparison. Calls come from the whole dose curve; tested in HEK293 reporter line. A potency beside an inconclusive call is a rough fit, not a confirmed value.
# Experiment: qHTS Assay for Foot and Mouth Disease Virus Antivirals: Primary Screen against the MLPCN compound library; note: nearly all actives have a fitted effect of over 55% in size
# Conditions: FMDV antiviral cell-based qHTS; activity, negative = inhibition: at 57.9 µM (top of the series)
# Potency is the fitted concentration of half-maximal effect.
SMILES,Potency,"activity, negative = inhibition"
CCOC(=O)c1ccc(NC(=O)CSc2nc3c(cc2C#N)N2CCC3CC2)cc1,"inconclusive: 12.6 µM [inhibitor, partial curve, poor fit]",
Cc1ccc(-n2nnc(-c3nccn3C)n2)cc1,"inconclusive: 39.8 µM [inhibitor, single point]",
CC[C@]12C(=O)N(C)C[C@H]([C@@H]3C(=O)N(C)C(=O)[C@@H]31)N2C(=O)c1ccc(C)cc1,"inconclusive: 8.91 µM [inhibitor, partial curve, poor fit]",
CCOc1ccc(NC(=O)Cn2c(=O)n(CCCCC(=O)NCCc3ccc(Cl)cc3)c(=O)c3ccccc32)cc1,"inconclusive: 7.94 µM [inhibitor, partial curve, poor fit]",
N#C/C(=C\c1ccc(OCc2ccc(Cl)cc2Cl)cc1)c1nc2ccccc2[nH]1,"inconclusive: 25.1 µM [inhibitor, partial curve, poor fit]",
Cn1nc(C(C)(C)C)cc1C(=O)NCc1cc(F)cc2c1OCOC2,"inconclusive: 12.6 µM [inhibitor, partial curve, poor fit]",
COc1ccc(NC(=O)c2cc3ccccc3oc2=O)cc1,"inconclusive: 10 µM [inhibitor, partial curve, poor fit]",
COc1cc(C)c(-c2[nH]ncc2-c2csc(C)n2)c(O)c1,inactive,
COc1ccc([C@H]2C[C@@H](O)[C@H](n3cc(-c4ccc(F)cc4)nn3)CN2CC2CCCCC2)cc1,"inconclusive: 1.78 µM [inhibitor, partial curve, poor fit]",
Nc1nonc1C(=O)N/N=C/c1ccc([N+](=O)[O-])o1,"inconclusive: 10 µM [inhibitor, partial curve, poor fit]",
CC(C)Cn1nc(C(=O)Nc2nnc(C3CC3)s2)c2ccccc2c1=O,"inconclusive: 7.08 µM [inhibitor, partial curve, poor fit]",
COc1cc2c(cc1NC(=O)CCCCCN1C(=O)CCC1=O)oc1ccccc12,"inconclusive: 20 µM [inhibitor, single point]",
Cc1n[nH]c(C)c1S(=O)(=O)N1CCCC(C(=O)N2CCN(c3ccc(Cl)cc3)CC2)C1 (stereo unspecified),"inconclusive: 20 µM [inhibitor, partial curve, poor fit]",
Cc1ccc(NC(=O)c2oc3ccccc3c2COC(C)C)cc1S(=O)(=O)N1CCOCC1,"inconclusive: 22.4 µM [inhibitor, single point]",
Nc1ccccc1SC(CC(=O)c1ccccc1)c1cccc([N+](=O)[O-])c1 (stereo unspecified),"inconclusive: 39.8 µM [inhibitor, single point]",
CC(=O)c1cccc(N/C=C\C(=O)c2ccc(C)cc2)c1,"inconclusive: 12.6 µM [inhibitor, single point]",
COC(=O)c1csc2c(C(F)(F)F)cc(N3CCN(C(=O)Nc4ccccc4)CC3)nc12,,inconclusive: -31.9% [inhibitor]
C[C@@H](CO)NC(=O)c1ccc2c3n(nc2c1)-c1ccccc1CO3,"inconclusive: 14.1 µM [inhibitor, single point]",
C=C(C)Cn1c(N2CCN(c3ccc(OC)cc3)CC2)nc2c1c(=O)n(C)c(=O)n2C,"inconclusive: 28.2 µM [inhibitor, partial curve, poor fit]",

SMILES,Potency,"activity, negative = inhibition"
Cc1cccc(NC(=O)c2ccc3oc(=O)c(S(=O)(=O)c4ccc(F)cc4)cc3c2)c1C,"inconclusive: 31.6 µM [inhibitor, partial curve, poor fit]",
O=C(NCc1cccc(Cl)c1)C1CCCN(c2nn3cc(-c4ccc(F)cc4)nc3s2)C1 (stereo unspecified),"inconclusive: 11.2 µM [inhibitor, partial curve, poor fit]",
CCN(CC)C(=O)c1cccc(-c2csc(C(C)(O)c3cccc(F)c3)n2)c1 (stereo unspecified),"inconclusive: 25.1 µM [inhibitor, partial curve, poor fit]",
CCCCNC(=S)N/N=C/c1ccc(OCC(=O)Nc2c(C)cc(C)cc2C)c(OC)c1,"inconclusive: 15.8 µM [inhibitor, partial curve, poor fit]",
Cc1cc2c(cc1C)N(C(=O)CCl)CCN2C(=O)CCl,"inconclusive: 8.91 µM [inhibitor, partial curve, poor fit]",
COc1cc(C2CC(=O)c3cnc(N4CCN(Cc5ccccc5)CC4)nc3C2)cc(OC)c1OC (stereo unspecified),"inconclusive: 15.8 µM [inhibitor, partial curve, poor fit]",
CCN1Cc2c(/C=C/c3ccccc3)nc3ccc(OC)cc3c2N(c2cccc(Cl)c2)C1,"inconclusive: 39.8 µM [inhibitor, single point]",
CC1=C(c2ccc(F)cc2)S(=O)(=O)N=C1N1CCC(C(=O)NCCc2cccc(C)c2)CC1,"inconclusive: 1.78 µM [inhibitor, full curve]",
Nc1ccc2nc(-c3ccccc3)sc2c1,"inconclusive: 10 µM [inhibitor, partial curve, poor fit]",
Cc1sc(NC(=O)c2ccco2)c(CN2CCC(C)CC2)c1C,"inconclusive: 7.94 µM [inhibitor, partial curve, poor fit]",
CCn1c(N2CCC(C)CC2)nc2c1c(=O)n(C)c(=O)n2C,inactive,
O=C(c1ccccc1)c1cc(-c2ccccc2)on1,"inconclusive: 39.8 µM [inhibitor, single point]",
O=[N+]([O-])c1cc(-c2ncccn2)c([N+](=O)[O-])s1,"inconclusive: 39.8 µM [inhibitor, partial curve, poor fit]",
N#Cc1cccc2c1-c1ccccc1/C2=N/NC(N)=S,"inconclusive: 35.5 µM [inhibitor, single point]",
CC(C)(C)OC(=O)N1CCC(NC(=O)c2[nH]cnc2C(=O)Nc2ccc(Cl)cc2)CC1,"inconclusive: 31.6 µM [inhibitor, partial curve, poor fit]",
CCCCc1ccc(N/C(N)=N/c2nc(C)cc(C)n2)cc1,"inconclusive: 25.1 µM [inhibitor, partial curve, poor fit]",
COc1ccc(/C=N\n2nnc3ccccc32)cc1,"inconclusive: 10 µM [inhibitor, partial curve, poor fit]",
N=C(N)SCc1cn(-c2ccccc2)nc1-c1ccc(Br)cc1,"inconclusive: 20 µM [inhibitor, partial curve, poor fit]",
Cc1cc(NC(=O)c2cccc(S(=O)(=O)N3CC(c4ccccc4)CC3=O)c2)no1 (stereo unspecified),"inconclusive: 22.4 µM [inhibitor, partial curve, poor fit]",

SMILES,Potency,"activity, negative = inhibition"
O=C(Nc1cccc(C(F)(F)F)c1)c1ccc2c(c1)nnn2C1CCCC1,active: 12.6 µM,
COCCNC(=O)CCc1c(C)nc2c(c(C)nn2-c2ccc(C)cc2)c1C,"inconclusive: 0.631 µM [inhibitor, full curve]",
CCCCCCCCN1C(=O)[C@H](CC(=O)NCCCCc2ccccc2)C[C@@]2(C(=O)OC)CCCCC=C12,"inconclusive: 10 µM [inhibitor, partial curve, poor fit]",
Cc1nc2oc3c(NCc4ccccc4)ncnc3c2c2c1COC(C)(C)C2,"inconclusive: 28.2 µM [inhibitor, partial curve, poor fit]",
COc1ccc(/C=C2\Sc3ccc(C(=O)N4CCOCC4)cc3N(C)C2=O)cc1,"inconclusive: 25.1 µM [inhibitor, single point]",
N#Cc1nc(-c2ccco2)oc1N1CCC(Cc2ccccc2)CC1,"inconclusive: 22.4 µM [inhibitor, partial curve, poor fit]",
Oc1ccc(Cl)cc1Nc1nc(NCC2CCCO2)c2ccccc2n1 (stereo unspecified),"inconclusive: 28.2 µM [inhibitor, partial curve, poor fit]",
CCc1nc(C)cn1S(=O)(=O)c1cc(C)c(OC)c(C)c1C,"inconclusive: 2.82 µM [inhibitor, partial curve, poor fit]",
CCOC(=O)c1cc(C#N)c(N2CCN(C(=O)c3cccc(C(F)(F)F)c3)CC2)nc1C(F)(F)F,"inconclusive: 8.91 µM [inhibitor, partial curve, poor fit]",
CCc1ccc(-c2nc(-c3ccncc3)no2)cc1,"inconclusive: 14.1 µM [inhibitor, single point]",
CN(C(=O)c1cccc(COc2ccc(Cl)cc2Cl)c1)c1ccccc1,"inconclusive: 39.8 µM [inhibitor, single point]",
CN(C)c1ccc(C=c2c3ccccc3n3c2cc(-c2ccccc2)[n+]3C)cc1,"inconclusive: 15.8 µM [inhibitor, partial curve, poor fit]",
Cc1cc2nc(-c3ccc[nH]c3=O)[nH]c2cc1C,active: 12.6 µM,
C#CCN(C[C@@H]1[C@@H](OC(=O)NC2CC2)[C@@H](OC(=O)NC2CC2)Cn2c(=O)ccc(=O)n21)S(=O)(=O)c1ccc(C)cc1,"inconclusive: 20 µM [inhibitor, partial curve, poor fit]",
Cc1cc(C)c2c(=O)n(CC(=O)N3CCC(N4CCCCC4)CC3)sc2n1,"inconclusive: 7.94 µM [inhibitor, full curve]",
COC(=O)[C@@]1(Cc2ccccc2)[C@@H]2C(=CC(=O)[C@H]2CC(=O)C(=O)N(C)C)CN1C(=O)c1ccccc1,"inconclusive: 14.1 µM [inhibitor, partial curve, poor fit]",
Cc1nc2ccccc2c2oc(C(=O)N3CC(C)CC(C)C3)cc12 (stereo unspecified),inactive,
COc1cccc(CNc2nc3cc(-c4ccsc4)sc3c(=O)n2C)c1OC,"inconclusive: 31.6 µM [inhibitor, partial curve, poor fit]",

# Compounds from the list above with an aryl thioether with sulfur outside any ring:
SMILES,Potency,"activity, negative = inhibition"
CCOC(=O)c1ccc(NC(=O)CSc2nc3c(cc2C#N)N2CCC3CC2)cc1,"inconclusive: 12.6 µM [inhibitor, partial curve, poor fit]",
Nc1ccccc1SC(CC(=O)c1ccccc1)c1cccc([N+](=O)[O-])c1 (stereo unspecified),"inconclusive: 39.8 µM [inhibitor, single point]",
